This is an account of results in article doi:10.1101/431023.

These are yes or no findings as the source states them, for the method shown. Binding seen in cells or lysates may run through a third protein. Some results given as binding are weak or reduced against the parent protein; the word gives no strength. Tags and fused reporters may be left off the sequences shown.

In test [1] the target is T1, 3xFLAG-TCF7L1 (knock-in at one allele of endogenous TCF7L1) (mouse (endogenous in mESCs)) (UniProt Q9Z1J1).
T1 sequence: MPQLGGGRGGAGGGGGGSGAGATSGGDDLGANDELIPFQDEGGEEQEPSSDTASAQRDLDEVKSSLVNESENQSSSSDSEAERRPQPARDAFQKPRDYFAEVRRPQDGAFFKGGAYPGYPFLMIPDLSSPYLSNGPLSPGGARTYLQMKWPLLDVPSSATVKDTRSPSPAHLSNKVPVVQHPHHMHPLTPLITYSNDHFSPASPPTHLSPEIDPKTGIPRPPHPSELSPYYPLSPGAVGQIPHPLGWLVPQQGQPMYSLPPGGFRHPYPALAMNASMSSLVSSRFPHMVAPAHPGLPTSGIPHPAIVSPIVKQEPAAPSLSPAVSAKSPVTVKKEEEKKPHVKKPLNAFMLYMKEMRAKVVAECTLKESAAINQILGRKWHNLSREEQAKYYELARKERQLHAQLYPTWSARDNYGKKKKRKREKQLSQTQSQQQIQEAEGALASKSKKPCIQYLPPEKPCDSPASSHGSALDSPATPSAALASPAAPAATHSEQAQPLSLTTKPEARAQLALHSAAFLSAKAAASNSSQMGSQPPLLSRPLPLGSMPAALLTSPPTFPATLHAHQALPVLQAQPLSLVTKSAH
Briefly: proximity ligation.

The target in test [2] is T1, 3xFLAG-TCF7L1 (knock-in at one allele of endogenous TCF7L1) (mouse (endogenous in mESCs)). Briefly: co-IP.

Turning to SALL4 (from UniProt Q8BX22 1-1067), the binding entry in test [1] was “binds”.

With “SALL4 isoform SALL4A (from UniProt Q8BX22-1 1-1067)”, the binding result in test [2] is listed as “binds”.

B1: SALL4 isoform SALL4B (protein, UniProt Q8BX22-2 1-623)
chain: MSRRKQAKPQHINWEEGQGEQPQQLPSPDLAEALAAEEPGAPVNSPGNCDEASEDSIPVKRPRREDTHICNKCCAEFFSLSEFMEHKKSCTKTPPVLIMNDSEGPVPSEDFSRAALSHQLGSPSNKDSLQENGSSSGDLKKLGTDSILYLKTEATQPSTPQDISYLPKGKVANTNVTLQALRGTKVAVNQRGAEAPMAPMPAAQGIPWVLEQILCLQQQQLQQIQLTEQIRVQVNMWAAHALHSGVAGADTLKALSSHVSQQVSVSQQVSAAVALLSQKASNPALSLDALKQAKLPHASVPSAASPLSSGLTSFTLKPDGTRVLPNFVSRLPSALLPQTPGSVLLQSPFSAVTLDQSKKGKGKPQNLSASASVLDVKAKDEVVLGRTSLPPTFIRAQPTFVKVEVPGTFVGPPSMPSGMPPLLASQPQPRRQAKQHCCTRCGKNFSSASALQIHERTHTGEKPFVCNICGRAFTTKGNLKVHYMTHGANNNSARRGRKLAIENPMAALSAEGKRAPEVFSKELLSPAVSVDPASWNQYTSVLNGGLAMKTNEISVIQSGGIPTLPVSLGASSVVSNGTISKLDGSQTGVSMPMSGNGEKLAVPDGMAKHQFPHFLEENKIAVS
Regarding B1, the binding result in test [2] is “no binding”.
